Assay results from the supplement of paper PMC3682954.
Where a name gives a salt, the structure may show the parent alone. ± gives the standard deviation of the averaged measurements. This is one part of the list. Single values are uncertain, as repeats are few or missing.

Tested on: RAW 264.7
Test: HMGB1-induced TNF-alpha production relative to HMGB1-stimulated control; higher = more TNF-alpha secretion (less inhibition)
Conditions: stimulus: HMGB1 5 ug/ml, 18 h
[1] = compound concentration: 1 ug/ml

Row | Structure (SMILES) | HMGB1-induced TNF-alpha production (compound concentration: 3 uM) [%] | HMGB1-induced TNF-alpha production [1] [%]
1 | COc1ccc2c(c[n+](C)c3c4cc5c(cc4ccc23)OCO5)c1OC [Chelerythrine chloride] | 3.08 | 
2 | c1ccc2c(c1)[I+]c1ccccc1-2 [Diphenyleneiodonium chloride] | 77.4 | 
3 | CC(N)Cc1cccc(C(F)(F)F)c1 (single isomer, unassigned; (+)) [(+)-Norfenfluramine hydrochloride] | 104 | 
4 | O=[N+]([O-])c1cc([As](=O)(O)O)ccc1O | 77.2 | 
5 | O=[N+]([O-])c1cc([As](=O)(O)O)ccc1O [Roxarsone] | 95 | 
6 | CCN1C[C@]2(COC)[C@H](O)C[C@H](OC)[C@@]34[C@@H]5C[C@@]6(O)[C@H](OC(=O)c7ccccc7)[C@@H]5[C@@](OC(C)=O)([C@@H]([C@H](OC)[C@H]23)[C@@H]14)[C@@H](O)[C@@H]6OC [Aconitine] | 88.1 | 
7 | CCN1C[C@]2(COC)[C@H](O)C[C@H](OC)[C@@]34[C@@H]5C[C@@]6(O)[C@H](OC(=O)c7ccccc7)[C@@H]5[C@@](OC(C)=O)([C@@H]([C@H](OC)[C@H]23)[C@@H]14)[C@@H](O)[C@@H]6OC | 86.1 | 
8 | CCn1cc(C(=O)O)c(=O)c2cc3c(cc21)OCO3 | 79.2 | 
9 | CCn1cc(C(=O)O)c(=O)c2cc3c(cc21)OCO3 [Oxolinic acid] | 93.8 ± 13 | 
10 | C[C@]12CC[C@H](O)C[C@@H]1CC[C@@H]1[C@@H]2CC[C@]2(C)C(=O)CC[C@@H]12 [Epiandrosterone] | 77 | 70.7
11 | C[N+]1(C)[C@@H]2C[C@@H](OC(=O)[C@H](CO)c3ccccc3)C[C@H]1[C@@H]1O[C@@H]12 | 85.5 | 
12 | C[N+]1(C)[C@@H]2C[C@@H](OC(=O)[C@H](CO)c3ccccc3)C[C@H]1[C@@H]1O[C@@H]12 [(-)-Scopolamine methyl bromide] | 87.9 | 
13 | CN(C(=O)Cc1ccc(Cl)c(Cl)c1)C(CN1CCCC1)c1cccc(OCC(=O)O)c1 (stereo not drawn) [ICI 204,448 hydrochloride] | 94.9 | 
14 | NCCc1ccc(O)cc1 [4-Hydroxyphenethylamine hydrochloride] | 111 | 
15 | CN(C)C(=O)Oc1cc(OC(=O)N(C)C)cc(C(O)CNC(C)(C)C)c1 (stereo not drawn) [Bambuterol] | 85.3 | 
16 | CN(C)C(=O)Oc1cc(OC(=O)N(C)C)cc(C(O)CNC(C)(C)C)c1 (stereo not drawn) | 83.1 | 
17 | CN(C)C(=O)Oc1cc(OC(=O)N(C)C)cc(C(O)CNC(C)(C)C)c1 (stereo not drawn) [Bambuterol hydrochloride] | 65.7 | 
18 | NC(=O)COc1c(F)cc(SCCNS(=O)(=O)c2ccccc2)cc1F | 88.6 | 
19 | CCCN1CCC[C@H](c2cccc(O)c2)C1 [R(+)-3PPP hydrochloride] | 112 | 
20 | CC[C@@]1([C@@H]2O[C@@H]([C@H]3O[C@@](O)(CO)[C@H](C)C[C@@H]3C)C[C@@H]2C)CC[C@H]([C@]2(C)CC[C@]3(C[C@H](O)[C@@H](C)[C@@H]([C@@H](C)[C@@H](OC)[C@H](C)C(=O)O)O3)O2)O1 [Monensin sodium salt] | 108 | 
21 | CCN(C)C(=O)Oc1cccc([C@H](C)N(C)C)c1 [Rivastigmine] | 88.5 ± 12 | 
22 | C[C@H](Cc1ccc2c(c1)OC(C(=O)O)(C(=O)O)O2)NC[C@H](O)c1cccc(Cl)c1 | 84.6 | 
23 | CCC1(c2ccc(N)cc2)CCC(=O)NC1=O (stereo not drawn) | 84.9 ± 7.6 | 
24 | CCC1(c2ccc(N)cc2)CCC(=O)NC1=O (stereo not drawn) [Glutethimide, para-amino] | 83.7 | 

Row | Structure (SMILES) | HMGB1-induced TNF-alpha production (compound concentration: 3 uM) [%] | HMGB1-induced TNF-alpha production [1] [%]
25 | C[N+]1(C)CCN(c2ccccc2)CC1 [1,1-Dimethyl-4-phenyl-piperazinium iodide] | 103 | 
26 | C[N+]1(C)CCN(c2ccccc2)CC1 | 117 | 
27 | COc1ccc2c3c([nH]c2c1)C(C)=NCC3 [Harmaline hydrochloride dihydrate] | 112 | 65.3
28 | CN1[C@@H]2CC[C@H]1C[C@@H](OC1c3ccccc3CCc3ccccc31)C2 [Deptropine citrate] | 97.9 | 
29 | C[C@@H](N)Cc1cnc[nH]1 [Histamine, R(-)-alpha-methyl-, dihydrochloride] | 85.6 | 
30 | Clc1cc(I)cc(Cl)c1NC1=NCCN1 [p-Iodoclonidine hydrochloride] | 91.9 | 
31 | C[C@@H]1O[C@@H](O[C@H]2C[C@@H](O)[C@]3(CO)[C@H]4[C@H](O)C[C@]5(C)[C@@H](C6=CC(=O)OC6)CC[C@]5(O)[C@@H]4CC[C@]3(O)C2)[C@H](O)[C@H](O)[C@H]1O [Ouabain] | 92.6 ± 6.3 | 
32 | C[C@@H]1O[C@@H](O[C@H]2C[C@@H](O)[C@]3(CO)[C@H]4[C@H](O)C[C@]5(C)[C@@H](C6=CC(=O)OC6)CC[C@]5(O)[C@@H]4CC[C@]3(O)C2)[C@H](O)[C@H](O)[C@H]1O | 92.22 ± 0.29 | 
33 | C[C@@H]1O[C@@H](O[C@H]2C[C@@H](O)[C@]3(CO)[C@H]4[C@H](O)C[C@]5(C)[C@@H](C6=CC(=O)OC6)CC[C@]5(O)[C@@H]4CC[C@]3(O)C2)[C@H](O)[C@H](O)[C@H]1O [(-)-Ouabain hydrate] |  | 53.9
34 | NCC(O)c1ccc(O)cc1 (racemic) [(+,-)-Octopamine hydrochloride] | 101 | 
35 | NCC(O)c1ccc(O)cc1 (racemic) [(±)-Octopamine hydrochloride] | 104 | 
36 | [N-]=[N+]=CC(=O)OC[C@H](N)C(=O)O | 79.1 | 
37 | C[N+]1([O-])[C@@H]2CC[C@H]1C[C@@H](OC(=O)C(CO)c1ccccc1)C2 (stereo partly drawn) | 74.6 | 
38 | NCCCP(=O)(O)O [3-Aminopropylphosphonic acid] | 111 | 
39 | CNCCc1c[nH]c2ccc(O)cc12 [N-omega-Methyl-5-hydroxytryptamine oxalate salt] | 109 | 
40 | CNC1=Nc2ccc(Cl)cc2C(c2ccccc2)=[N+]([O-])C1 | 92.1 ± 9.2 | 
41 | CCC1(CC)C(=O)C=CNC1=O | 89.1 | 
42 | CCC1(CC)C(=O)C=CNC1=O [Pyrithyldione] | 132 | 
43 | COc1cc2c(c(OC)c1OC)-c1ccc(=O)c(O)cc1[C@@H](NC(C)=O)CC2 [Colchiceine] |  | 75.5
44 | COc1ccc(Cc2nccc3cc(OC)c(OC)cc23)cc1OC [Papaverine hydrochloride] | 107 ± 10 | 
45 | COc1ccc(Cc2nccc3cc(OC)c(OC)cc23)cc1OC | 93.2 | 
46 | NNC(=O)c1ccc(O)cc1 [4-Hydroxybenzhydrazide] | 84.6 | 
47 | C=C(C)[C@H]1Cc2c(ccc3c2O[C@@H]2COc4cc(OC)c(OC)cc4[C@@H]2C3=O)O1 | 82.8 | 
48 | C=C(C)[C@H]1Cc2c(ccc3c2O[C@@H]2COc4cc(OC)c(OC)cc4[C@@H]2C3=O)O1 [Rotenone] | 102 | 107

Row | Structure (SMILES) | HMGB1-induced TNF-alpha production (compound concentration: 3 uM) [%] | HMGB1-induced TNF-alpha production [1] [%]
49 | COC(=O)C1=CCCN(C)C1 [Arecoline hydrobromide] | 97.2 ± 15 | 
50 | COC(=O)C1=CCCN(C)C1 | 89.1 | 
51 | N[C@@H](CCl)C(=O)O [beta-Chloro-L-alanine hydrochloride] | 75.5 | 
52 | CC(C)(C)NCC(O)c1cc(Cl)c(N)c(Cl)c1 (stereo not drawn) [Clenbuterol] | 52.2 | 
53 | CC(C)(C)NCC(O)c1cc(Cl)c(N)c(Cl)c1 (stereo not drawn) | 34.7 | 
54 | CC(C)(C)NCC(O)c1cc(Cl)c(N)c(Cl)c1 (stereo not drawn) [Clenbuterol hydrochloride] | 32.2 | 
55 | COc1cc2c(cc1OC)[C@@]13CCN4CC5=CCO[C@H]6CC(=O)N2[C@H]1[C@H]6[C@H]5C[C@H]43 [Brucine] | 98.4 | 
56 | COc1cc2c(cc1OC)[C@@]13CCN4CC5=CCO[C@H]6CC(=O)N2[C@H]1[C@H]6[C@H]5C[C@H]43 | 77.4 ± 8.7 | 
57 | COc1cc2c(cc1OC)[C@H](C)NCC2 [Salsolidine] |  | 62.3
58 | O=C(NC(=O)c1c(F)cccc1F)Nc1cc(Cl)c(OC(F)(F)C(F)C(F)(F)F)cc1Cl (stereo not drawn) | 67.6 | 
59 | NNC(N)=O [Semicarbazide hydrochloride] | 117 | 
60 | O=C[C@H](Cl)[C@@H](O)[C@H](O)[C@H](O)CO [2-Chloro-2-deoxy-D-glucose] | 78.4 | 
61 | CCC(N)C(O)c1ccc(O)c(O)c1 (stereo not drawn) | 22 | 
62 | CCCN(CCC)C1CCc2ccc(O)cc2C1 (stereo not drawn) [R-(+)-7-Hydroxy-DPAT hydrobromide] | 86.1 | 
63 | c1ccc(C2(c3ccccc3)CC2C2=NCCN2)cc1 (stereo not drawn) [Cibenzoline succinate] | 98.7 | 
64 | C/C=C1\C[C@@H](C)[C@](O)(CO)C(=O)OCC2=CCN3CC[C@@H](OC1=O)[C@@H]23 [Retrorsine] |  | 67.1
65 | C[C@H]1CCC[C@H](O)CCCCCc2cc(O)cc(O)c2C(=O)O1 | 95.7 | 
66 | COc1ccc(CCN2CCC(Nc3nc4ccccc4n3Cc3ccc(F)cc3)CC2)cc1 | 80.5 | 
67 | COc1ccc(CCN2CCC(Nc3nc4ccccc4n3Cc3ccc(F)cc3)CC2)cc1 [Astemizole] | 98.4 ± 16 | 
68 | CC(=O)O[C@H]1C[C@H](O[C@H]2[C@@H](O)C[C@H](O[C@H]3[C@@H](O)C[C@H](O[C@H]4CC[C@@]5(C)[C@H](CC[C@@H]6[C@@H]5C[C@@H](O)[C@]5(C)[C@@H](C7=CC(=O)OC7)CC[C@]65O)C4)O[C@@H]3C)O[C@@H]2C)O[C@H](C)[C@H]1O[C@@H]1O[C@H](CO)[C@@H](O)[C@H](O)[C@H]1O | 88.4 | 
69 | CC(=O)O[C@H]1C[C@H](O[C@H]2[C@@H](O)C[C@H](O[C@H]3[C@@H](O)C[C@H](O[C@H]4CC[C@@]5(C)[C@H](CC[C@@H]6[C@@H]5C[C@@H](O)[C@]5(C)[C@@H](C7=CC(=O)OC7)CC[C@]65O)C4)O[C@@H]3C)O[C@@H]2C)O[C@H](C)[C@H]1O[C@@H]1O[C@H](CO)[C@@H](O)[C@H](O)[C@H]1O [lanatoside C] |  | 70
70 | CC(=O)O[C@H]1C[C@H](O[C@H]2[C@@H](O)C[C@H](O[C@H]3[C@@H](O)C[C@H](O[C@H]4CC[C@@]5(C)[C@H](CC[C@@H]6[C@@H]5C[C@@H](O)[C@]5(C)[C@@H](C7=CC(=O)OC7)CC[C@]65O)C4)O[C@@H]3C)O[C@@H]2C)O[C@H](C)[C@H]1O[C@@H]1O[C@H](CO)[C@@H](O)[C@H](O)[C@H]1O [Lanatoside C] | 67.2 | 

Copied from the list:
HMGB1-induced TNF-alpha production (compound concentration: 3 uM) [%], CC[C@@]1([C@@H]2O[C@@H]([C@H]3O[C@@](O)(CO)[C@H](C)C[C@@H]3C)C[C@@H]2C)CC[C@H]([C@]2(C)CC[C@]3(C[C@H](O)[C@@H](C)[C@@H]([C@@H](C)[C@@H](OC)[C@H](C)C(=O)O)O3)O2)O1 [Monensin sodium salt] reads 108
HMGB1-induced TNF-alpha production (compound concentration: 3 uM) [%], NNC(=O)c1ccc(O)cc1 [4-Hydroxybenzhydrazide] reads 84.6
HMGB1-induced TNF-alpha production (compound concentration: 3 uM) [%], CCC(N)C(O)c1ccc(O)c(O)c1 (stereo not drawn) reads 22
